Reference: PubChem BioAssay AID504467 (National Center for Advancing Translational Sciences (NCATS), 2011)
In all, about 330,000 compounds went through this assay and about 7,700 (2.3%) were called active. Inconclusive results, whose numbers are uncertain, are shown with a selection of clear calls. Calls follow the shape of the dose curve; as a rule, active = well fitted inhibition curve with a large enough effect; inconclusive = small, poorly fitted or top-dose-only effect, or effect the other way; inactive = flat fitted curve, though single readings scatter. Where the call is inconclusive, the potency comes from a doubtful curve fit.

Assay: qHTS screen for small molecules that inhibit ELG1-dependent DNA repair in human embryonic kidney (HEK293T) cells expressing luciferase-tagged ELG1; also: nearly all actives have a fitted effect of over 55% in size
Details: HEK293T ELG1-luciferase reporter, luminescence, 16 h, DNA damage induced by 5-fluorouridine; activity change, negative = inhibition: at 46.1 µM (top of the series)
Summary of the method: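 DMSO vehicle served as the neutral condition. Each well held 2,000 cells given 5-fluorouridine plus compound; after 16 hr at 37 °C/5% CO2, ONE-Glo was added and luciferase measured 30 min later.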
% is scaled to controls: 0 for no effect and ±100 for the full control effect; potency is read from the fitted curve at half-maximal effect.

SMILES	Potency	activity change, negative = inhibition
Cc1c(C(=O)Nc2ccc(S(N)(=O)=O)cc2)oc2ccc(Cl)cc12	inconclusive: 14.6 µM [activator, partial curve, poor fit]	
CCC(=O)Nc1cc(C)c(NC(=O)c2ccco2)cn1	inconclusive: 16.4 µM [activator, partial curve, poor fit]	
CC(C)CC(=O)c1c[nH]c(C(=O)NCc2ccccc2)c1	inconclusive: 3.66 µM [inhibitor, partial curve, poor fit]	
O=C(N/N=C/c1ccc(F)cc1)c1ccccc1	inconclusive: 18.3 µM [activator, partial curve]	
O=S(=O)(c1ccc2nnn(O)c2c1)N1CCOCC1	inconclusive: 18.3 µM [activator, partial curve, poor fit]	
OC1(c2cccc(C(F)(F)F)c2)CCN(Cc2nnnn2CCc2ccccc2)CC1	inconclusive: 25.9 µM [inhibitor, partial curve]	
CC(C)Cn1c2c(c(O)c(C(=O)Nc3ncccc3O)c1=O)CCCC2	inconclusive: 18.4 µM [inhibitor, single point]	
O=C1CC(c2ccco2)Cc2nc(N3CCN(Cc4ccc5c(c4)OCO5)CC3)ncc21 (centres undefined)	inconclusive: 29.1 µM [inhibitor, single point]	
CCOc1ccc(NC(=O)CN2C(=O)C3CC=CCC3C2=O)cc1 (centres undefined)	inconclusive: 3.66 µM [activator, partial curve]	
O=C(c1ccccc1)c1ccc(C(=O)N2CCN(c3ccc(F)cc3)CC2)o1		inactive: -28.2%
CCn1c(=O)c([N+](=O)[O-])c(NCCc2ccc(OC)c(OC)c2)c2ccccc21	inconclusive: 29.1 µM [inhibitor, single point]	
Cc1cccc(NC(=S)NC2CCCCC2)n1		inactive: 10.7%
CSc1ccc(COC(=O)CCS(=O)(=O)c2ccc(C)cc2)cc1		inactive: 12.7%
O=C(/C=C/c1c(Cl)cccc1Cl)Nc1ccncc1	inconclusive: 14.6 µM [activator, partial curve]	
CC(C)N1C(=O)C(=O)N(CC(=O)N(C)c2ccccc2)C1=O		inactive: 10.9%
Cc1ccc(C)c(OCCC(=O)OCC(=O)NC(=O)NCc2ccccc2)c1	inconclusive: 20.6 µM [activator, single point]	
O=C(CCCc1cccs1)Nc1ccc2c(c1)OCO2	inconclusive: 8.2 µM [activator, partial curve]	
COc1ccc(NC(=S)N2CCC(C(=O)c3ccc(OC)cc3)CC2)cc1	active: 23.1 µM	
Cc1c(C(=O)NCCCN2CCCC2=O)oc2ccccc12	inconclusive: 23.1 µM [activator, single point]	
O=C(O)/C=C/c1cnn(-c2ccccc2)c1	inconclusive: 1.16 µM [activator, partial curve]	
COc1cccc(-n2c(Cc3cc(=O)[nH]c(=O)[nH]3)nnc2SCC(=O)NC2CCCCC2)c1	inconclusive: 11.6 µM [activator, partial curve, poor fit]	
Cc1ccc(S(=O)(=O)ON2C(=O)c3cccc4cccc(c34)C2=O)cc1		inactive: 11.5%
CCOCCCNC(=O)C(c1ccc(Cl)cc1)N(Cc1cccs1)C(=O)c1ccccn1 (centres undefined)	inconclusive: 23.1 µM [inhibitor, single point]	

As a short view, some entries already given:
SMILES	Potency	activity change, negative = inhibition
O=C(c1ccccc1)c1ccc(C(=O)N2CCN(c3ccc(F)cc3)CC2)o1		inactive: -28.2%
CCn1c(=O)c([N+](=O)[O-])c(NCCc2ccc(OC)c(OC)c2)c2ccccc21	inconclusive: 29.1 µM [inhibitor, single point]	
Cc1cccc(NC(=S)NC2CCCCC2)n1		inactive: 10.7%
CSc1ccc(COC(=O)CCS(=O)(=O)c2ccc(C)cc2)cc1		inactive: 12.7%
O=C(/C=C/c1c(Cl)cccc1Cl)Nc1ccncc1	inconclusive: 14.6 µM [activator, partial curve]	
CC(C)N1C(=O)C(=O)N(CC(=O)N(C)c2ccccc2)C1=O		inactive: 10.9%
Cc1ccc(C)c(OCCC(=O)OCC(=O)NC(=O)NCc2ccccc2)c1	inconclusive: 20.6 µM [activator, single point]	
O=C(CCCc1cccs1)Nc1ccc2c(c1)OCO2	inconclusive: 8.2 µM [activator, partial curve]	
COc1ccc(NC(=S)N2CCC(C(=O)c3ccc(OC)cc3)CC2)cc1	active: 23.1 µM	
Cc1c(C(=O)NCCCN2CCCC2=O)oc2ccccc12	inconclusive: 23.1 µM [activator, single point]	
O=C(O)/C=C/c1cnn(-c2ccccc2)c1	inconclusive: 1.16 µM [activator, partial curve]	
COc1cccc(-n2c(Cc3cc(=O)[nH]c(=O)[nH]3)nnc2SCC(=O)NC2CCCCC2)c1	inconclusive: 11.6 µM [activator, partial curve, poor fit]	
Cc1ccc(S(=O)(=O)ON2C(=O)c3cccc4cccc(c34)C2=O)cc1		inactive: 11.5%
CCOCCCNC(=O)C(c1ccc(Cl)cc1)N(Cc1cccs1)C(=O)c1ccccn1 (centres undefined)	inconclusive: 23.1 µM [inhibitor, single point]	

Next part:

SMILES	Potency	activity change, negative = inhibition
O=C(Cc1ccccc1)Nc1ccccc1C(=O)NCC1CCCO1 (centres undefined)		inactive: 4.03%
Cc1ccc(CNC(=O)CC(C)S(=O)(=O)c2ccc3c(c2)NC(=O)C(C)S3)cc1 (centres undefined)	inconclusive: 25.9 µM [inhibitor, partial curve, poor fit]	
O=C(N/C(=C/c1cccs1)c1nc2ccccc2[nH]1)c1ccccc1		inactive: -1.88%
NC(=S)NNC(=O)c1cccc(Br)c1		inactive: 13%
Cc1cc(NC(=O)c2cccc(C(=O)Nc3cc(C)on3)n2)no1	inconclusive: 3.26 µM [inhibitor, full curve, poor fit]	
O=C(O)CN1C(=O)/C(=C/c2ccccc2Br)Oc2ccccc21		inactive: 1.75%
CCc1ccccc1NC(=O)c1cc([N+](=O)[O-])ccc1N1CCOCC1		inactive: 10.2%
Cn1c(=O)[nH]c2ncccc21	inconclusive: 3.26 µM [activator, full curve]	
CCn1cc(Br)c(C(=O)Nc2ccc(F)c(Cl)c2)n1	inconclusive: 17.8 µM [activator, partial curve, poor fit]	
COC(=O)/C(C#N)=C1/C=Cc2ccccc2N1C	inconclusive: 18.4 µM [activator, partial curve, poor fit]	
CCc1cccc2c(C(=O)Cn3nnc(-c4ccc(OC)c(OC)c4)n3)c[nH]c12	inconclusive: 29.1 µM [inhibitor, single point]	
O=C(NCc1cccs1)Nc1ccc(Cl)cc1	inconclusive: 10.3 µM [activator, partial curve]	
Cc1cc(/C=c2/sc3nc4ccccc4n3c2=O)c(C)n1-c1ccccn1	inconclusive: 0.206 µM [activator, full curve]	
CSc1ccccc1NC(=O)c1cnc2scc(C)n2c1=O	inconclusive: 18.4 µM [activator, partial curve]	
CC(C)c1ccc2oc(-c3ccc(NC(=O)c4ncn[nH]4)cc3)nc2c1	inconclusive: 5.8 µM [activator, partial curve]	
O=C(CSc1cccs1)NCCc1ccccc1	inconclusive: 20.6 µM [activator, partial curve]	
CCOC(=O)N1CCN(C(=O)c2ccc(CSc3ccc(Cl)cc3)cc2)CC1	inconclusive: 29.1 µM [inhibitor, single point]	
O=C(COc1cccc(C(F)(F)F)c1)NCC(c1ccco1)N1CCCCC1 (centres undefined)		inactive: 1.14%
COc1cc(CNCCCN2CCOCC2)c(Br)cc1OCC(=O)Nc1ccccc1C	inconclusive: 23.1 µM [activator, single point]	
CCOc1ccc(C(=O)N2CCN(Cc3ccccc3)CC2)cc1	inconclusive: 29.1 µM [inhibitor, single point]	
Fc1ccccc1COc1ccc(Br)cc1CNCc1cccnc1	inconclusive: 29.1 µM [inhibitor, single point]	
c1ccc(Cn2nnc3c(NCC4CCCO4)ncnc32)cc1 (centres undefined)	inconclusive: 35.5 µM [inhibitor, single point]	
O=c1c2c3c(sc2nc2sc(C4CC4)nn12)CCCC3	inconclusive: 9.2 µM [activator, partial curve]	

SMILES	Potency	activity change, negative = inhibition
COc1ccc(NCC(=O)N/N=C(\C)c2cc3ccccc3o2)cc1		inactive: -11.2%
O=C(Nc1nc(-c2ccccc2)c(C(=O)c2ccccc2)s1)c1ccc(S(=O)(=O)N2CCCC2)cc1	inconclusive: 20.6 µM [inhibitor, partial curve]	
OCCNc1nc(NCc2ccccc2)c2ccccc2n1		inactive: -16.8%
Cc1ccccc1N(C(=O)c1snc(C(N)=O)c1N)C(C)C(=O)NC1CCCCC1 (centres undefined)		inactive: -14.3%
COc1ccccc1NS(=O)(=O)c1cc(C(=O)NCC(c2cccs2)N2CCOCC2)ccc1C (centres undefined)	inconclusive: 6.51 µM [inhibitor, single point]	
CCCNS(=O)(=O)c1ccc(-n2cnnn2)c(OC)c1	inconclusive: 32.6 µM [activator, partial curve, poor fit]	
COCCCn1c(SCC(=O)OC2CCCCC2)nnc1-c1cccs1		inactive: 1.46%
Cc1ccccc1-c1noc(-c2ccc(Cl)cc2)n1	inconclusive: 11.6 µM [activator, partial curve]	
CCc1ccc(/C=N/NC(=O)c2cc(-c3cccc([N+](=O)[O-])c3)n[nH]2)cc1	inconclusive: 20.6 µM [inhibitor, single point]	
Cc1nc(N)sc1N=Nc1ccc(Br)cc1	inconclusive: 6.51 µM [activator, partial curve]	
O=C(Nc1ccccc1C(F)(F)F)c1cc(-c2ccco2)on1	inconclusive: 20.6 µM [activator, partial curve]	
CC(=O)c1c(C)nn(CC(O)COc2ccc3c(c2)CCC3)c1C (centres undefined)	inconclusive: 16.4 µM [inhibitor, single point]	
O=C(COC(=O)c1cc(NS(=O)(=O)c2cccs2)ccc1O)Nc1ccc(F)c(F)c1F	inconclusive: 4.61 µM [inhibitor, full curve]	
CCn1cc(C(=O)N2CCCC(C(=O)c3ccc4ccccc4c3)C2)cn1 (centres undefined)	inconclusive: 29.1 µM [inhibitor, single point]	
Cc1nc2cc(C(F)(F)F)ccc2n1C	inconclusive: 20.6 µM [activator, single point]	
COc1cc(CC(=O)OCC(=O)NC2CCCCC2C)cc(OC)c1OC (centres undefined)		inactive: 3.01%
Cc1cccc(N2CCN(C(=O)c3cccc(N4CCCC4=O)c3)C(C)C2)c1 (centres undefined)	inconclusive: 3.26 µM [inhibitor, single point]	
COC(=O)c1cn[nH]c1NC(=S)Nc1ccc(C)cc1Cl	inconclusive: 0.461 µM [activator, full curve]	
CCN(CC)c1ccc(/C=N/NC(=O)c2c(Cl)c(C)nn2C)cc1	inconclusive: 23.1 µM [inhibitor, single point]	
COc1ccc(CNC(=O)CN(Cc2ccc(Cl)cc2)S(=O)(=O)c2ccccc2)cc1	inconclusive: 23.1 µM [inhibitor, partial curve, poor fit]	
Cc1cc(C)cc(NC(=O)COC(=O)CCC2CCCC2)c1		inactive: 17.5%
CCCCC(=O)NNC(=S)NC(=O)c1ccc([N+](=O)[O-])cc1	inconclusive: 14.6 µM [inhibitor, partial curve, poor fit]	
O=c1ccc(-c2ccc(S(=O)(=O)N3CCN(c4ccccc4)CC3)o2)n[nH]1	inconclusive: 23.1 µM [activator, single point]	
